Only a part is listed here, and it is no random draw.
The targets below were run with COC(=O)C#Cc1ccccc1 [methyl 3-phenylpropiolate] (assay: log2 ratio of iodoacetamide-alkyne labeling of the cysteine site, DMSO over compound (competition); higher = stronger covalent engagement of the cysteine by the compound, active = 1 or more). Settings: 500 µM; treatment time 1 h; system: HEK293T cell lysate.
Method in brief: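 The log2 competition ratio per cysteine is defined as mean reporter intensity in control channels over mean reporter intensity in compound channels. Lysate from HEK293T cells (2 mg/mL) received electrophile (500 µM) or vehicle for 1 h at ambient temperature, followed by iodoacetamide alkyne for 1 h. Samples were clicked to sCIP-TMT reagents, pooled, trypsin-digested overnight at 37 °C, streptavidin-enriched, acid-eluted and run on Orbitrap Eclipse LC-MS/MS with FAIMS, with quantification in FragPipe. Three replicates with duplicate channels were used, and any cysteine quantified in only one replicate was excluded.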

By UniProt entry, the sequences of proteins in these tests, tags left out. Where a name states a change or a piece, a line headed by the entry shows the natural chain unless it says otherwise.
UniProt Q9Y3Z3: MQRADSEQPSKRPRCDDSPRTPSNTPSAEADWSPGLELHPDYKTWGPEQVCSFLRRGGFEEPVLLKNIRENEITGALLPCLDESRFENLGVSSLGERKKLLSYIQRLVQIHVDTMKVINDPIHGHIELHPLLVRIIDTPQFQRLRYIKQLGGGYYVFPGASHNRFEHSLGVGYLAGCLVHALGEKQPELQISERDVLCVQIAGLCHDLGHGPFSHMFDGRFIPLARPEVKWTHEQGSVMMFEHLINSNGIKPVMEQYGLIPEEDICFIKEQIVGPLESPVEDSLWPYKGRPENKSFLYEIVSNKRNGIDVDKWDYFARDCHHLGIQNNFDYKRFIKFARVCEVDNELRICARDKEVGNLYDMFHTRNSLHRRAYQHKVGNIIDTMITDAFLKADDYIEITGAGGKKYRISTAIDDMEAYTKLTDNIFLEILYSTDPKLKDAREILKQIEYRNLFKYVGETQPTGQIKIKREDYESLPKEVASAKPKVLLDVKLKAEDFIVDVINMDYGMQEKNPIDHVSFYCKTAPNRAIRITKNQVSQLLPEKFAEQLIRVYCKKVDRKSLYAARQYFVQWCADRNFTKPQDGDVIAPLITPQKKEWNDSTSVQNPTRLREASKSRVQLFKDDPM
UniProt Q9UIA9: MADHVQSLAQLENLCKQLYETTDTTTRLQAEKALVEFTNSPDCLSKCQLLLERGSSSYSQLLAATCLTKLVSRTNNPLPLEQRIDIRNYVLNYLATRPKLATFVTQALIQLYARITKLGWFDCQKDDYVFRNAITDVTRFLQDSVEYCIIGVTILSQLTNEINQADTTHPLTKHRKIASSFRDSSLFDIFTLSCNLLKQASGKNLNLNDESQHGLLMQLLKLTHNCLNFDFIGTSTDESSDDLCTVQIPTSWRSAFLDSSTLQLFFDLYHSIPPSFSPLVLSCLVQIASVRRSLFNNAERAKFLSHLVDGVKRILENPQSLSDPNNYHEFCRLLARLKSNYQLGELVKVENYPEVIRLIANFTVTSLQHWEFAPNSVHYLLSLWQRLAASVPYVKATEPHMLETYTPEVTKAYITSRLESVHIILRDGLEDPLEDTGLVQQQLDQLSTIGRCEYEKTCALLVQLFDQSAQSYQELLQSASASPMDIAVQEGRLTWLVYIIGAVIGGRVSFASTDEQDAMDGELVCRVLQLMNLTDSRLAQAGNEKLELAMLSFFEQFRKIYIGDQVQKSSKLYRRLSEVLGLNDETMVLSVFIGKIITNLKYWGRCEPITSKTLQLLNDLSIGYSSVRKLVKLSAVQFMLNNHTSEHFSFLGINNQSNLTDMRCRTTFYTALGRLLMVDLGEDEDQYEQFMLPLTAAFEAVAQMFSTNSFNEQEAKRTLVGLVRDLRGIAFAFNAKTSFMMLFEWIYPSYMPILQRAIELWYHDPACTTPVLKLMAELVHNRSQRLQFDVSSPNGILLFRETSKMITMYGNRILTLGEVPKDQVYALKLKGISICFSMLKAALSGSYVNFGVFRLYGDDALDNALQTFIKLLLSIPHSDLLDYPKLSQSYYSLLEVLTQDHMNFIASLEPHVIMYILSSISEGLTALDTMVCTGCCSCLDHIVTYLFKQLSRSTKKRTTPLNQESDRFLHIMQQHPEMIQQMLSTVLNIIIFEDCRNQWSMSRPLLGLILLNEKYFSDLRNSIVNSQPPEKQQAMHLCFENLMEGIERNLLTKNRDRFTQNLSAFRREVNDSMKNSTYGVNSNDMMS
UniProt Q9UP83: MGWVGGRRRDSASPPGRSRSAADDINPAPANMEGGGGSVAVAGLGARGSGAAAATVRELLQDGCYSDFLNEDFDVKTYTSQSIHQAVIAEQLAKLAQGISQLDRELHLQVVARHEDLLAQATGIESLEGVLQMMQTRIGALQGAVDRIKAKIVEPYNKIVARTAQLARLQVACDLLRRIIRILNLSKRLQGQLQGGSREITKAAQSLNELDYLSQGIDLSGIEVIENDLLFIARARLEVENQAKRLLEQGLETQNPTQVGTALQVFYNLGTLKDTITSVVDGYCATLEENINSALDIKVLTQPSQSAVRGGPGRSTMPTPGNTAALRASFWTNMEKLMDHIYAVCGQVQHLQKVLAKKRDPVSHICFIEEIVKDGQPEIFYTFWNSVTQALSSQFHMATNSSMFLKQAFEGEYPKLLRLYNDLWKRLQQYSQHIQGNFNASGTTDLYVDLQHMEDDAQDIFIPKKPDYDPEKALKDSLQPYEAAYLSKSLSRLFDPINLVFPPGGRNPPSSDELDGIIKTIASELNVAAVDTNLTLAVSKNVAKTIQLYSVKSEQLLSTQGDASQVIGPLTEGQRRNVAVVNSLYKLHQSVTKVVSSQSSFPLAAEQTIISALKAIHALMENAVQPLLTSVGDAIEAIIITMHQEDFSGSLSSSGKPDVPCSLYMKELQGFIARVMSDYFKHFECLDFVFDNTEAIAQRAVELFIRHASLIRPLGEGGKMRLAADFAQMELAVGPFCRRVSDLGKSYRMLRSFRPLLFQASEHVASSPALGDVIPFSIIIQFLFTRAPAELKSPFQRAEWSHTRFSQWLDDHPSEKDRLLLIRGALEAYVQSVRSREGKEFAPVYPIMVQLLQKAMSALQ
UniProt Q9Y262, whole entry: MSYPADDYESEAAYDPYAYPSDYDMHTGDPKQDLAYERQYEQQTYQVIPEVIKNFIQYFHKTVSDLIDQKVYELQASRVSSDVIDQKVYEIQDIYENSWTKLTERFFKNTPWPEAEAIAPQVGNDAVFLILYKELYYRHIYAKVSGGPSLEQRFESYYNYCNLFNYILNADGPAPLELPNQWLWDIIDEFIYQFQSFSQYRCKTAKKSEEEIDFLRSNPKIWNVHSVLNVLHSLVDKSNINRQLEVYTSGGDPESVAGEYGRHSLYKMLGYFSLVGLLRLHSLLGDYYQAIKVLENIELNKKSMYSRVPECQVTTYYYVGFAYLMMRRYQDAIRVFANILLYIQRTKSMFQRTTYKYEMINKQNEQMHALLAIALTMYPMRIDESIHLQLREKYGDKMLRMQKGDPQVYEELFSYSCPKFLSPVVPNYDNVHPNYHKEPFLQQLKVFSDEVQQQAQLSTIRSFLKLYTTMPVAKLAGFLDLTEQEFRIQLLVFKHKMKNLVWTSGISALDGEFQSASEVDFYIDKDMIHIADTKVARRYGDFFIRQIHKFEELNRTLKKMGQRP
UniProt Q9UJ41, whole entry, looked up: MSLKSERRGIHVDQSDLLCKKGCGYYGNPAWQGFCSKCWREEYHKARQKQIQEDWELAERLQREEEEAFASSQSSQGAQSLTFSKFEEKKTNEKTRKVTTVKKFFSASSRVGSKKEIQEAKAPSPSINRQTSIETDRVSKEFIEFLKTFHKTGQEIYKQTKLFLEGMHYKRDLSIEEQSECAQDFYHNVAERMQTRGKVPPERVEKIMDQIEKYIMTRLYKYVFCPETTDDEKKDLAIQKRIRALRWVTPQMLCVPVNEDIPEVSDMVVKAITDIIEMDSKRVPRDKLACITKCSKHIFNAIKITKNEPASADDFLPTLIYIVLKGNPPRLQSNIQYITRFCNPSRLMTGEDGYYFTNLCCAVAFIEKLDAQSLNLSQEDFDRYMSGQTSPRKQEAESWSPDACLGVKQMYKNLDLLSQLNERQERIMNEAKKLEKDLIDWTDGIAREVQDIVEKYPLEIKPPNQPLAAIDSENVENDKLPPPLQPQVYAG
UniProt Q9UL46, whole entry: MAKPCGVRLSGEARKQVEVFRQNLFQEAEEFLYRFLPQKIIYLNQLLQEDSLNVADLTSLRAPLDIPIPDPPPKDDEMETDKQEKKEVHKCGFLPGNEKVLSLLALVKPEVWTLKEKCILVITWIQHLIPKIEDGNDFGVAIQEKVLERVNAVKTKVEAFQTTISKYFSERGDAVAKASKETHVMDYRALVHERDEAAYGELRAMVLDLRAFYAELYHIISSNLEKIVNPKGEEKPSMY
UniProt Q9UIF9: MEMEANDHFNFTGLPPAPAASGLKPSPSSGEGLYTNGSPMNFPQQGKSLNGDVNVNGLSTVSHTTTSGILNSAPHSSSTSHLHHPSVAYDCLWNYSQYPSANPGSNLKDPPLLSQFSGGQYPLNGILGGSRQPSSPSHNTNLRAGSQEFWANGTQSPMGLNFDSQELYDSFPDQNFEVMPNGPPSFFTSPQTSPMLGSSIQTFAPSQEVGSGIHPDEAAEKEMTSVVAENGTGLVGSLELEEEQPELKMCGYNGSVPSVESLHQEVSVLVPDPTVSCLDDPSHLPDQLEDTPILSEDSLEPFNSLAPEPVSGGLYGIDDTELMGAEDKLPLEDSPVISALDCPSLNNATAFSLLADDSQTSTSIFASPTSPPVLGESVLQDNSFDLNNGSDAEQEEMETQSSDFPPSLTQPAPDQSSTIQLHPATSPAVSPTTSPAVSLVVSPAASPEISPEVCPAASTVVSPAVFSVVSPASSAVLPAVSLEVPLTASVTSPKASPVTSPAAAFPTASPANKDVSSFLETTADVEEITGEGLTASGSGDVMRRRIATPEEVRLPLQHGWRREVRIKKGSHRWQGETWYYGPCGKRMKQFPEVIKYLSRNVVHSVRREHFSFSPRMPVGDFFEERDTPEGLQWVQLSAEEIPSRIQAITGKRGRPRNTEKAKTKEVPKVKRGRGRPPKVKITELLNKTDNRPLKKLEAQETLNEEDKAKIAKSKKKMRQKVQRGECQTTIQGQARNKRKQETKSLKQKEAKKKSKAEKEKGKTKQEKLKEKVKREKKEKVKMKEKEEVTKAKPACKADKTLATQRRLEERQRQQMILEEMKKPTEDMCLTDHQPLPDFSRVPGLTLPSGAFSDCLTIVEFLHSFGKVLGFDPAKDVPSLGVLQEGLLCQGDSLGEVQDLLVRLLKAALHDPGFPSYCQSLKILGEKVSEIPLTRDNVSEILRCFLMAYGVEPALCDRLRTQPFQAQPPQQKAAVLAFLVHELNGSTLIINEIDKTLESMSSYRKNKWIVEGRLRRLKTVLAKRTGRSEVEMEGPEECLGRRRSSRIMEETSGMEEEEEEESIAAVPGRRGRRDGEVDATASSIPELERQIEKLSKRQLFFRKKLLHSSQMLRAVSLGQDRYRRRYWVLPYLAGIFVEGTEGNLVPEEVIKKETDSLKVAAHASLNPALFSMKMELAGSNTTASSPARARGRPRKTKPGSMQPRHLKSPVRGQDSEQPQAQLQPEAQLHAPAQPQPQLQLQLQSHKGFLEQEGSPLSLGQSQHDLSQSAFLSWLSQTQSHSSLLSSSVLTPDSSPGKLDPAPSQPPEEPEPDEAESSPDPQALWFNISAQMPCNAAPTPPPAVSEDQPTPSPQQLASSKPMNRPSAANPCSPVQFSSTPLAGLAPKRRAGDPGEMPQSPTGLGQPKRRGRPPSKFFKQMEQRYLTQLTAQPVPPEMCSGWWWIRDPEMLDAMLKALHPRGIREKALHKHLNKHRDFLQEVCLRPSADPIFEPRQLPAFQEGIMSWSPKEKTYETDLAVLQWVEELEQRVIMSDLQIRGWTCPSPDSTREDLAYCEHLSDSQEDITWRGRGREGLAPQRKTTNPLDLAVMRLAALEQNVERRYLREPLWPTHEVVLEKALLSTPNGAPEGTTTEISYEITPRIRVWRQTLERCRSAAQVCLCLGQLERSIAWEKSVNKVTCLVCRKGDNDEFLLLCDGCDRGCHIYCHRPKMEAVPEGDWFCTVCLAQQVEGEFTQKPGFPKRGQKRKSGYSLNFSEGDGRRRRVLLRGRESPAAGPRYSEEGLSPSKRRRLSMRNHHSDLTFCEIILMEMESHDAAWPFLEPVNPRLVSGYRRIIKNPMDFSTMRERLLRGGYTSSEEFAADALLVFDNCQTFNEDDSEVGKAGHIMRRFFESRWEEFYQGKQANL
UniProt Q9UQR0: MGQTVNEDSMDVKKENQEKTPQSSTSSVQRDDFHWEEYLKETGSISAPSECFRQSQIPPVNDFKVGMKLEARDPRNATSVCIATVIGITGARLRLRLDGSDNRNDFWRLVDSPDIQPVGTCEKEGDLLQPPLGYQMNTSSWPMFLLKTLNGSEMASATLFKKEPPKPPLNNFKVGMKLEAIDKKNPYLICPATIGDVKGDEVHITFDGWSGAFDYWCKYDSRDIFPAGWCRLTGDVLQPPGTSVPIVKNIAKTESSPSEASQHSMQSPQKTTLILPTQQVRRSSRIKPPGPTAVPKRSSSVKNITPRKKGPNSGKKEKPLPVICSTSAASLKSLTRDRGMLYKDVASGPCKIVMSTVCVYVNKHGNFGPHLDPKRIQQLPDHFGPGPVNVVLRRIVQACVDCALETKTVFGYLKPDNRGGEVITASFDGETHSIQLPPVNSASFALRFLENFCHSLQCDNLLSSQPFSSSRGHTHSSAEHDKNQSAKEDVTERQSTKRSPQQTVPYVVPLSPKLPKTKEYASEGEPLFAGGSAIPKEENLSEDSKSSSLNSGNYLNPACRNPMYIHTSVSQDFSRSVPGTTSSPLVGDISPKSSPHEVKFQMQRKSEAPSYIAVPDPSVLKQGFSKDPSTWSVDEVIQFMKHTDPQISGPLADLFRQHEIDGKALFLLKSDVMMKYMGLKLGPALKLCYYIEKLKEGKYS

log2 ratio of iodoacetamide-alkyne labeling, active:
NOTCH3 C134 (UniProt Q9UM47) 1.63
BCAP29 C171 (UniProt Q9UHQ4) 1.1

log2 ratio of iodoacetamide-alkyne labeling, inactive:
DDX20 C181 (UniProt Q9UHI6) 0.42
SHOC2 C306 (UniProt Q9UQ13) 0.273
UniProt Q9UK61_C734 0.0144
SAMHD1 C80 (UniProt Q9Y3Z3) 0.175
XPO7 C15 (UniProt Q9UIA9) -0.00361
SAMHD1 C522 (UniProt Q9Y3Z3) 0.0954
NISCH C403 (UniProt Q9Y2I1) 0.119
COG5 C64 (UniProt Q9UP83) 0.802
EIF3L C417 (UniProt Q9Y262) 0.6
UniProt Q9Y3D0_C93 0.0692
RABGEF1 C359 (UniProt Q9UJ41) 0.223
MACF1 C7245 (UniProt Q9UPN3) 0.571
PSME2 C91 (UniProt Q9UL46) 0.468
NOP58 C139 (UniProt Q9Y2X3) 0.118
BAZ2A C1480 (UniProt Q9UIF9) 0.257
SCML2 C559 (UniProt Q9UQR0) 0.722
NUP50 C181 (UniProt Q9UKX7) -0.0096
HERC5 C424 (UniProt Q9UII4) 0.565
HECTD1 C1995 (UniProt Q9ULT8) 0.345
TRIM33 C145 (UniProt Q9UPN9) 0.21

For reference, part of the list above.
log2 ratio of iodoacetamide-alkyne labeling, inactive:
SAMHD1 C80 (UniProt Q9Y3Z3) 0.175
XPO7 C15 (UniProt Q9UIA9) -0.00361
SAMHD1 C522 (UniProt Q9Y3Z3) 0.0954
NISCH C403 (UniProt Q9Y2I1) 0.119
COG5 C64 (UniProt Q9UP83) 0.802
